Some results were stated once for a whole list of compounds, not compound by compound.
The substances below were run on EAE mice (assay: EAE mouse model, reduction of paralytic symptoms). Settings: 1 μg daily intraperitoneally for 10 days, versus PBS.
Format: in vivo

Substance | p by Mann-Whitney U test, EAE symptoms
Ac VQIVYK CONH2 [D-tau 623-628] | < 0.05
VQIVYK [Tau 623-628] | < 0.05

Same assay, conditions: 1 μg peptide daily, administered in 50% DMSO

Substance | p by the Mann Whitney U test, EAE symptoms
MVGGVV (N-acetyl, C-amide) [A beta A4 35-40, Ac MVGGVV CONH2 in b76] | < 0.05

Same assay, conditions: 1 μg peptide daily, versus PBS control

Substance | p by the Mann Whitney U test, EAE symptoms
GYVIIK [serum amyloid P 213-218] | < 0.05
LKVKVL [HspB5 89-94, hexamer of HspB5 residues 89-94] | < 0.05
NKGAII [A beta A4 27-32] | < 0.05
SSTNVG [amylin 28-33] | < 0.05
SVNDLV [HspB5 76-81, hexamer of HspB5 residues 76-81] | < 0.05
VQIVYK [Tau 623-628] | < 0.05
